Results deposited as PubChem BioAssay AID602196 (INSERM, 2012)

Test: 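Genes whose knock-down alters cisplatin killing of lung cancer cells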
Cells: human A549 lung cancer cells
Reagents: siRNA pair against human genes
Duration: 48 h transfection before cisplatin; time from cisplatin to read-out not stated
Challenge: cisplatin at a dose killing half of control-siRNA cells; exact dose and duration not given
Measurement: 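Shift in cisplatin death relative to control siRNA, from -50 (all cells die) to +50 (no cells die); siRNAs harmful on their own scored 0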
Scale: two-siRNA summed score (-2 to +2): higher = both siRNAs protect from cisplatin killing; -2 means both sensitise; mean protection from cisplatin (shift in death) and protection from cisplatin (shift in death), siRNA C and protection from cisplatin (shift in death), siRNA D: higher = protection from cisplatin killing
Rule for the call: 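Each siRNA scores 0 if harmful alone by LDH or WST-1, otherwise +1 if it reduces and -1 if it increases cisplatin killing; a gene is active when both siRNAs agree (sum +2 or -2)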
Calls: active = both siRNAs shift cisplatin killing the same way; inactive = no consistent shift, or siRNA harmful alone
Here is one part, drawn at random, of about 23,000 reagents tested. Over the whole deposit, 455 (2%) were called active. 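Active includes both protection and sensitisation; some change values fall well beyond the stated -50 to +50 range.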 Reagents against one gene are numbered here. Not given: the amount of reagent.

Gene | reagent | two-siRNA summed score (-2 to +2) | mean protection from cisplatin (shift in death) (%) | protection from cisplatin (shift in death), siRNA C (%) | protection from cisplatin (shift in death), siRNA D (%) | outcome
LOC440936 | 1 | 0 | 4.2 | 6.1 | 2.4 | inactive
PGBD5 | 1 | 0 | 8.7 | 1.4 | 16 | inactive
AGTR2 | 1 | 0 | 3.4 | 9 | -2.1 | inactive
CABP7 | 1 | 0 | 1.4 | 16.4 | -13.7 | inactive
LOC442232 | 1 | 0 | 31.3 | 24.9 | 37.7 | inactive
LOC440620 | 1 | 1 | 11.5 | 17.4 | 5.5 | inactive
DYRK1A | 1 | -1 | -12.4 | -13.6 | -11.1 | inactive
RPL5 | 1 | 0 | 31.8 | 32.2 | 31.4 | inactive
FEM1B | 1 | 0 | 1.9 | -12.6 | 16.4 | inactive
LOC440908 | 1 | 0 | 18.1 | 27.1 | 9.1 | inactive
SULT1C4 | 1 | 0 | 6.1 | 9.7 | 2.5 | inactive
MAN2B1 | 1 | 0 | -6.8 | -14.4 | 0.8 | inactive
AAGAB | 1 | 0 | 2.5 | -11.2 | 16.2 | inactive
SUV39H1 | 1 | 0 | 2.4 | 6.8 | -2 | inactive
EXTL2 | 1 | 1 | 8 | 3.7 | 12.2 | inactive
RPAP1 | 1 | 0 | 5.8 | 10.3 | 1.2 | inactive
SUPT20HL2 | 1 | 0 | -4.4 | -2.7 | -6 | inactive
FKBP7 | 1 | 0 | -13 | -10.7 | -15.3 | inactive
HNMT | 1 | 0 | 7.7 | 4.9 | 10.5 | inactive
MAP2K2 | 1 | 0 | -0.3 | 6.9 | -7.4 | inactive
SIRPB2 | 1 | 0 | 5.8 | 10.1 | 1.5 | inactive
ICMT-DT | 1 | 0 | 0.5 | 5.7 | -4.7 | inactive
LOC390377 | 1 | 0 | -4.3 | -0.9 | -7.7 | inactive
ZFAND2B | 1 | 0 | 3.7 | 2.6 | 4.8 | inactive
THEMIS | 1 | 1 | 11 | 22.9 | -0.8 | inactive
LOC440463 | 1 | 0 | 0.3 | 0.2 | 0.3 | inactive
MARCHF7 | 1 | 0 | -0.6 | -13.5 | 12.3 | inactive
RAB39B | 1 | 0 | 7.1 | 2.4 | 11.8 | inactive
LRTOMT | 1 | 0 | 14.4 | 21.9 | 6.9 | inactive
TMED6 | 1 | 0 | -2.5 | 3 | -7.9 | inactive
SUMF2 | 1 | 1 | 13.8 | 5.8 | 21.8 | inactive
PART1 | 1 | 0 | 2.8 | -8.4 | 14 | inactive
A4GNT | 1 | 0 | 10.2 | 21.5 | -1.2 | inactive
SLC30A2 | 1 | 0 | 22.1 | 14.4 | 29.7 | inactive
OXR1 | 1 | 0 | -0.2 | -2.2 | 1.9 | inactive
MTMR11 | 1 | 0 | -2 | -7.6 | 3.5 | inactive
RRM2 | 1 | 0 | 4.5 | 4.7 | 4.3 | inactive
RRM2 | 2 | 0 | 8.8 | 6.6 | 11 | inactive
LOC440968 | 1 | 0 | 18.8 | 17.8 | 19.8 | inactive
GRIK4 | 1 | 0 | -14.2 | -15.4 | -13.1 | inactive
TAC3 | 1 | -1 | -9.6 | -15.8 | -3.5 | inactive
LOC255519 | 1 | 0 | 0 | -2.6 | 2.6 | inactive
MFSD2A | 1 | 0 | 11.7 | 7.8 | 15.6 | inactive
SLC25A29 | 1 | 0 | 11 | 29.2 | -7.1 | inactive
ZGRF1 | 1 | 0 | 3.4 | 1.4 | 5.3 | inactive
ZGRF1 | 2 | 0 | 9.4 | 11.7 | 7.2 | inactive
RALY | 1 | 0 | 7.6 | 0.9 | 14.4 | inactive
LINC00052 | 1 | 0 | 4.3 | 2.5 | 6.2 | inactive
LOC441480 | 1 | 0 | 0.3 | -0.2 | 0.8 | inactive
PEX19 | 1 | 0 | -2.7 | -2.6 | -2.9 | inactive
LOC200475 | 1 | 0 | 5.2 | 7.4 | 2.9 | inactive
LOC388466 | 1 | 1 | 14.5 | 9.1 | 20 | inactive
RWDD1 | 1 | 1 | 19.5 | 27 | 12 | inactive
LOC389707 | 1 | 0 | 16.1 | 23.3 | 8.9 | inactive
SRFBP1 | 1 | 0 | -0.7 | -10.1 | 8.6 | inactive
LOC440204 | 1 | 1 | 6.9 | -9.4 | 23.3 | inactive
TIAL1 | 1 | 0 | -0.5 | -13.4 | 12.3 | inactive

A stretch of the results above:
Gene | reagent | two-siRNA summed score (-2 to +2) | mean protection from cisplatin (shift in death) (%) | protection from cisplatin (shift in death), siRNA C (%) | protection from cisplatin (shift in death), siRNA D (%) | outcome
LOC440968 | 1 | 0 | 18.8 | 17.8 | 19.8 | inactive
GRIK4 | 1 | 0 | -14.2 | -15.4 | -13.1 | inactive
TAC3 | 1 | -1 | -9.6 | -15.8 | -3.5 | inactive
LOC255519 | 1 | 0 | 0 | -2.6 | 2.6 | inactive
MFSD2A | 1 | 0 | 11.7 | 7.8 | 15.6 | inactive
SLC25A29 | 1 | 0 | 11 | 29.2 | -7.1 | inactive
ZGRF1 | 1 | 0 | 3.4 | 1.4 | 5.3 | inactive
ZGRF1 | 2 | 0 | 9.4 | 11.7 | 7.2 | inactive
RALY | 1 | 0 | 7.6 | 0.9 | 14.4 | inactive
